Reference: PubChem BioAssay AID248 (DTP/NCI, 2004)
The list shows only some results of the screen, not a fair sample: it is rich in T/C values a quarter to a half above the control, in often repeated tests (any T/C) and in doses without a T/C. Other doses and runs of a compound stand elsewhere. T/C is the treated group as % of the vehicle group. Some entries give survivors of the animals treated and no T/C: the source files T/C as zero there, which appears to mark a toxic dose or a test without result, not a measured value. Some survivor counts are full or nearly so, which does not show that the dose was tolerated: the source hardly ever lists a survival T/C far under the control, and the zero likely stands for such cases as well. Counts of survivors are from the toxicity check (mostly the fifth day) where no day follows; animals may have died later. Schedules are NCI's codes, taken here to give the interval after Q, in days (D) or hours (H), and the number of doses after X. Some molecules as drawn cover several salts, stereoisomers or complexes of the source; a dose is that of the sample tested. Some doses were run more than once; the results are listed from low to high. Some schedule codes hold Z or #, which are not explained here. Brackets with × count equal records among those shown. For survival time, the PubChem record calls one and a half times the control and up active, and a quarter to a half above the control has no call in these data; cut-offs in other NCI protocols can differ.

Test system: L1210 leukemia ip in BDF1 mice, survival T/C
Assay: NCI In Vivo Anticancer Drug Screen. Data for tumor model L1210 Leukemia (intraperitoneal) in B6D2F1 (BDF1) mice
Settings: T/C endpoint: mean survival time, higher T/C = longer survival
[1] = dose: 200.0 mg/kg/injection, schedule: Q01DX001 (ip), vehicle: saline
[2] = dose: 400.0 mg/kg/injection, schedule: Q01DX001 (ip), vehicle: saline
[3] = dose: 50.0 mg/kg/injection, schedule: Q01DX009 (ip), vehicle: saline
[4] = dose: 100.0 mg/kg/injection, schedule: Q01DX009 (ip), vehicle: saline
[5] = dose: 200.0 mg/kg/injection, schedule: Q01DX009 (ip), vehicle: saline
[6] = dose: 400.0 mg/kg/injection, schedule: Q04DX003 (ip), vehicle: saline
[7] = dose: 200.0 mg/kg/injection, schedule: Q04DX003 (ip), vehicle: saline
[8] = dose: 400.0 mg/kg/injection, schedule: Q01DX009 (ip), vehicle: saline
[9] = dose: 400.0 mg/kg/injection, schedule: Q04DX002 (ip), vehicle: saline

O=C(NCCCNC(=O)Nc1cccc(C2=NCCCN2)c1)Nc1cccc(C2=NCCCN2)c1 was tested, and the survivor count (dose: 4.0 mg/kg/injection, schedule: Q01DX Z (ip), vehicle: carboxymethylcellulose (CMC)) was 0 of 6.
For O=NN(CCCl)C(=O)NC1CCC(CCl)CC1 (configuration not stated), the T/C (dose: 134.0 mg/kg/injection, schedule: Q01DX001 (ip), vehicle: saline with Tween-80) was 144 % of control.
For CN(C)[C@@H]1C(=O)C(C(N)=O)=C(O)[C@@]2(O)C(=O)C3=C(O)c4c(O)cccc4C[C@H]3C[C@@H]12, the survivor count (dose: 75.0 mg/kg/injection, schedule: Q01DX009 (ip), vehicle: other) was 2 of 6, the survivor count (dose: 100.0 mg/kg/injection, schedule: Q01DX001 (ip), vehicle: other) was 2 of 6 and the survivor count (dose: 115.0 mg/kg/injection, schedule: Q04DX003 (ip), vehicle: other) was 0 of 6. The survivor count (dose: 170.0 mg/kg/injection, schedule: Q04DX003 (ip), vehicle: other) was 0 of 6, the survivor count (dose: 200.0 mg/kg/injection, schedule: Q01DX001 (ip), vehicle: other) was 0 of 6 and the survivor count [1] was 1 of 6. For the same compound, the survivor count (dose: 400.0 mg/kg/injection, schedule: Q01DX001 (ip), vehicle: other) was 0 of 6 and the survivor count [2] was 0 of 6.
In the case of CCC(CN(C)C)C(=O)c1ccccc1 (configuration not stated), the survivor count [3] is reported as 0 of 6, the survivor count [4] is reported as 0 of 6 and the survivor count [5] is reported as 0 of 6.
In the case of CCn1c(C)nc2cc(Cl)c(Br)cc21, the survivor count [6] is reported as 6 of 6.
For C[N+](C)(C)Cc1ccccc1, the survivor count (dose: 25.0 mg/kg/injection, schedule: Q01DX009 (ip), vehicle: saline) was 4 of 6, the survivor count (dose: 40.0 mg/kg/injection, schedule: Q01DX001 (ip), vehicle: saline) was 0 of 4 and 2 of 6 and the survivor count (dose: 50.0 mg/kg/injection, schedule: Q01DX001 (ip), vehicle: saline) was 0 of 4. The survivor count [3] was 0 of 3, the survivor count (dose: 50.0 mg/kg/injection, schedule: Q04DX003 (ip), vehicle: saline) was 0 of 6 and the survivor count (dose: 75.0 mg/kg/injection, schedule: Q01DX001 (ip), vehicle: saline) was 0 of 6. The survivor count (dose: 80.0 mg/kg/injection, schedule: Q01DX001 (ip), vehicle: saline) was 0 of 4, the survivor count (dose: 100.0 mg/kg/injection, schedule: Q01DX001 (ip), vehicle: saline) was 0 of 4 and the survivor count [4] was 0 of 3, 0 of 6, 5 of 6. The survivor count (dose: 100.0 mg/kg/injection, schedule: Q04DX003 (ip), vehicle: saline) was 0 of 6, the survivor count (dose: 150.0 mg/kg/injection, schedule: Q01DX001 (ip), vehicle: saline) was 0 of 6 and the survivor count [1] was 0 of 4. The survivor count [5] was 0 of 6 (2×), the survivor count [7] was 0 of 6 and the survivor count (dose: 300.0 mg/kg/injection, schedule: Q01DX001 (ip), vehicle: saline) was 0 of 6. The survivor count [2] was 0 of 4, the survivor count [8] was 0 of 6 (2×) and the survivor count [6] was 0 of 6.
NCc1cc(=O)[nH]c(=O)[nH]1 was tested, and the survivor count [7] was 2 of 4.
In the case of CC(C)C1CCC2(CC1)CCN(CCCN(C)C)CC2, the survivor count [1] is reported as 2 of 4 and the survivor count [2] is reported as 0 of 4.
For O=C1c2ccccc2-c2ccc(N3C(=O)c4ccccc4C3=O)cc21, the survivor count (dose: 100.0 mg/kg/injection, schedule: Q01DX001 (ip), vehicle: saline with Tween-80) was 6 of 6, the survivor count (dose: 200.0 mg/kg/injection, schedule: Q01DX001 (ip), vehicle: saline with Tween-80) was 6 of 6 and the survivor count (dose: 400.0 mg/kg/injection, schedule: Q01DX001 (ip), vehicle: saline with Tween-80) was 6 of 6.
In the case of CCC[As](=O)(O)CCCc1ccccc1, the survivor count (dose: 6.25 mg/kg/injection, schedule: Q01DX009 (ip), vehicle: Klucel (hydroxypropylcellulose) (HPC)) is reported as 0 of 3, the survivor count (dose: 12.5 mg/kg/injection, schedule: Q01DX009 (ip), vehicle: Klucel (hydroxypropylcellulose) (HPC)) is reported as 0 of 3 and the survivor count (dose: 25.0 mg/kg/injection, schedule: Q01DX009 (ip), vehicle: Klucel (hydroxypropylcellulose) (HPC)) is reported as 0 of 3.
With CCc1ccc(C(=O)NN)cc1 the T/C [4] was 131 % of control, the survivor count [4] was 1 of 6 and the survivor count [5] was 1 of 6. The survivor count [8] was 1 of 6.
With CCCCCC(/C=N/N=C(N)N)=N\N=C(N)N the survivor count (dose: 120.0 mg/kg/injection, schedule: Q01DX Z (ip), vehicle: carboxymethylcellulose (CMC)) was 0 of 6.
With CC(C)n1cc2c(N)ncnc2n1 the survivor count [5] was 6 of 6.
With CNCCOC the survivor count (dose: 200.0 mg/kg/injection, schedule: Q04DX002 (ip), vehicle: saline) was 1 of 3 and the survivor count [9] was 0 of 3.
In the case of CN=C(c1ccc(NC(=O)c2ccc(C(=O)Nc3ccc(C(=NC)N4CCCC4)cc3)cc2)cc1)N1CCCC1, the survivor count (dose: 2.0 mg/kg/injection, schedule: Q01DX Z (ip), vehicle: water) is reported as 3 of 6 and the survivor count (dose: 4.0 mg/kg/injection, schedule: Q01DX Z (ip), vehicle: water) is reported as 0 of 6.
CCCCCCCCCCCC(=O)[O][Pb]([CH2]CCC)([CH2]CCC)[O]C(=O)CCCCCCCCCCC was tested, and the T/C (dose: 25.0 mg/kg/injection, schedule: Q04DX002 (ip), vehicle: gum acacia) was 127 % of control, the survivor count (dose: 50.0 mg/kg/injection, schedule: Q04DX002 (ip), vehicle: gum acacia) was 0 of 3 and 1 of 3 and the survivor count (dose: 100.0 mg/kg/injection, schedule: Q04DX002 (ip), vehicle: gum acacia) was 0 of 3. For the same compound, the survivor count (dose: 200.0 mg/kg/injection, schedule: Q04DX002 (ip), vehicle: gum acacia) was 0 of 3 and the survivor count (dose: 400.0 mg/kg/injection, schedule: Q04DX002 (ip), vehicle: gum acacia) was 0 of 3.
For Nc1ccc(N)c(C(=O)O)c1, the survivor count (dose: 300.0 mg/kg/injection, schedule: Q01DX001 (ip), vehicle: other) was 3 of 6.
For O=C(Nc1ccccc1C(F)(F)F)Nc1cccc2c(O)cccc12, the survivor count (dose: 100.0 mg/kg/injection, schedule: Q04DX002 (ip), vehicle: carboxymethylcellulose (CMC)) was 3 of 3.
CCN(CC)CCNc1ccc([N+](=O)[O-])c2sc3ccccc3c(=O)c12 was tested, and the T/C (dose: 17.0 mg/kg/injection, schedule: Q01DX Z (ip), vehicle: methylcellulose (MC)) was 130 % of control, the T/C (dose: 25.0 mg/kg/injection, schedule: Q01DX Z (ip), vehicle: methylcellulose (MC)) was 147 % of control and the T/C (dose: 26.0 mg/kg/injection, schedule: Q01DX Z (ip), vehicle: carboxymethylcellulose (CMC)) was 143 % of control. The T/C (dose: 84.0 mg/kg/injection, schedule: Q01DX Z (ip), vehicle: methylcellulose (MC)) was 144 % of control.
For CCCCCCCCCCCCCCCC(=O)SCCSC(=O)CCCCCCCCCCCCCCC, the survivor count (dose: 350.0 mg/kg/injection, schedule: Q04DX003 (ip), vehicle: other) was 0 of 6.
In the case of O=C(Nc1cccc(C(=O)Nc2ccc(C3=NCCN3)cc2)c1)c1ccc(C2=NCCN2)cc1, the T/C (dose: 60.0 mg/kg/injection, schedule: Q01DX Z (ip), vehicle: carboxymethylcellulose (CMC)) is reported as 144 % of control, the survivor count (dose: 240.0 mg/kg/injection, schedule: Q01DX Z (ip), vehicle: saline) is reported as 0 of 6 and the survivor count (dose: 480.0 mg/kg/injection, schedule: Q01DX Z (ip), vehicle: saline) is reported as 0 of 6.
In the case of C=CCc1ccc(OC(=O)Nc2ccc(C(=O)OCC)cc2)c(OC)c1, the survivor count (dose: 400.0 mg/kg/injection, schedule: Q01DX009 (ip), vehicle: Klucel (hydroxypropylcellulose) (HPC)) is reported as 6 of 6.
For NCCCN1CCCN=C1C1=NCCCN1CCCN, the survivor count [9] was 3 of 3.
With CC#CC#Cc1cccc(=O)o1 the survivor count (dose: 150.0 mg/kg/injection, schedule: Q04DX003 (ip), vehicle: Klucel (hydroxypropylcellulose) (HPC)) was 2 of 6, the survivor count (dose: 225.0 mg/kg/injection, schedule: Q04DX003 (ip), vehicle: Klucel (hydroxypropylcellulose) (HPC)) was 2 of 6 and the survivor count (dose: 335.0 mg/kg/injection, schedule: Q04DX003 (ip), vehicle: Klucel (hydroxypropylcellulose) (HPC)) was 0 of 6.
For O=C1c2ccccc2C(=O)N1CCS(=O)(=O)Cl, the survivor count (dose: 200.0 mg/kg/injection, schedule: Q01DX009 (ip), vehicle: carboxymethylcellulose (CMC)) was 6 of 6.
